Results deposited as PubChem BioAssay AID504791 (Drosophila RNAi Screening Center, 2011).
Aim: 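Genes whose knock-down strengthens or weakens small-RNA reporter silencing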 (primary screen). System: Drosophila S2-derived reporter cells. Reagent: long dsRNA against Drosophila genes, about 150-250 ng dsRNA per well (siRNA assay); about 80-120 ng (miRNA assay). Duration: about 5 days (siRNA assay); about 4 days (miRNA assay). Conditions: copper sulfate induction of reporters: 25 µM (siRNA assay); 200 mM stated (miRNA assay), 1-2 days before reading. Measurement: 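Dual luciferase assay: Renilla to firefly signal ratio in each well, scaled to the mean ratio of its plate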. Units: stable assay Renilla, run 1 in luminescence; stable assay firefly, run 1 in luminescence. Rule for the call: 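a well was a first-pass pick when its plate-scaled ratio rose above 1.5 (siRNA assay) or 1.6 (miRNA assay), or dropped below 0.6; a gene counted only if two separate dsRNAs agreed on retest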.
The deposit covers about 23,000 reagents; below is an unselected part of those that have a named target and a result. Over the whole deposit, 199 (0.86%) got an active call. 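Plate-scaled ratios behind the calls are not deposited; printed light signals are raw; many rows marked increased or decreased are still called inactive.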 A number with no mark means an inactive call. Reagent sequences are not shown. The record does not give: the direction of the score.

| gene knocked down | dsRNA | stable siRNA reporter change | miRNA reporter change | stable assay Renilla, run 1 | stable assay firefly, run 1 |
| --- | --- | --- | --- | --- | --- |
| wek (weckle) | DRSC03561 | – | – | 16968 | 1.24e6 |
| CG8229 | DRSC07114 | – | reporter ratio lowered past the hit cutoff | 7755 | 4.00e5 |
| alpha-Man-IIa (alpha-Mannosidase class II a) | DRSC15393 | – | – | 6671 | 3.46e5 |
| Sesn (Sestrin) | DRSC04101 | – | – | 69649 | 1.57e6 |
| Sesn (Sestrin) | DRSC04102 | – | – | 5915 | 4.97e5 |
| Sesn (Sestrin) | DRSC04103 | – | – | 7358 | 3.89e5 |
| CG6280 | DRSC06972 | – | – | 6298 | 3.39e5 |
| ppk17 (pickpocket 17) | DRSC02252 | – | – | 7003 | 5.01e5 |
| CG8736 | DRSC07255 | – | – | 6506 | 3.20e5 |
| CG16890 | DRSC01890 | – | – | 7814 | 1.36e6 |
| CG18545 | DRSC15343 | – | – | 6267 | 4.12e5 |
| CG15042 | DRSC19618 | – | – | 5487 | 5.13e5 |
| yki (yorkie) | DRSC04437 | – | – | 38064 | 9.15e5 |
| Ubi-p63E (Ubiquitin-63E) | DRSC22016 | – | – | 8891 | 6.42e5 |
| CG42729 | DRSC10236 | – | – | 6687 | 5.44e5 |
| Alh (Alhambra) | DRSC12447 | – | – | 4904 | 2.50e5 |
| Alh (Alhambra) | DRSC12487 | – | – | 5830 | 3.32e5 |
| Alh (Alhambra) | DRSC12488 | – | – | 7986 | 4.65e5 |
| CG17249 | DRSC08517 | – | – | 10150 | 3.47e5 |
| dnc (dunce) | DRSC17758 | – | – | 5567 | 2.55e5 |
| dnc (dunce) | DRSC17759 | – | – | 5292 | 4.11e5 |
| dnc (dunce) | DRSC17911 | – | – | 5591 | 2.84e5 |
| dnc (dunce) | DRSC18763 | – | – | 5759 | 2.86e5 |
| dnc (dunce) | DRSC18764 | – | – | 7347 | 5.01e5 |
| CG13630 | DRSC14631 | – | – | 10458 | 3.82e5 |
| CG3587 | DRSC18541 | – | – | 4632 | 4.91e5 |
| CG3587 | DRSC21966 | – | – | 10310 | 5.51e5 |
| CG17224 | DRSC00489 | – | – | 8689 | 5.35e5 |
| Cdk2 (Cyclin-dependent kinase 2) | DRSC16921 | reporter ratio lowered past the hit cutoff | – | 5127 | 3.72e5 |
| Syn2 (Syntrophin-like 2) | DRSC06902 | – | – | 6804 | 2.61e5 |
| TTLL5 (Tubulin tyrosine ligase-like 5) | DRSC14181 | – | – | 10246 | 3.91e5 |
| CG1695 | DRSC20538 | – | – | 6471 | 3.49e5 |
| CG15109 | DRSC06536 | – | – | 5755 | 3.10e5 |
| l(3)neo43 (lethal (3) neo43) | DRSC14988 | – | – | 6898 | 3.46e5 |
| CG13933 | DRSC08402 | – | – | 8394 | 2.87e5 |
| Nhe3 (Na[+]/H[+] hydrogen exchanger 3) | DRSC03380 | – | – | 6998 | 3.80e5 |
| CG14313 | DRSC14792 | – | – | 8782 | 3.95e5 |
| CG13028 | DRSC09908 | – | – | 6460 | 3.16e5 |
| Chchd2 (Coiled-coil-helix-coiled-coil-helix domain containing 2) | DRSC19931 | – | – | 5183 | 5.12e5 |
| CG11737 | DRSC14364 | – | – | 6624 | 3.93e5 |
| NKCC (sodium potassium chloride cotransporter) | DRSC12140 | reporter ratio raised past the hit cutoff | – | 16394 | 4.60e5 |
| NKCC (sodium potassium chloride cotransporter) | DRSC12311 | – | – | 6843 | 3.81e5 |
| rudhira | DRSC19821 | – | – | 5955 | 2.69e5 |
| rudhira | DRSC22111 | – | – | 9546 | 5.97e5 |
| rudhira | DRSC23144 | – | – | 5435 | 3.60e5 |
| dpr11 (defective proboscis extension response 11) | DRSC12561 | – | – | 6464 | 3.25e5 |
| dpr11 (defective proboscis extension response 11) | DRSC12562 | – | – | 6652 | 3.96e5 |
| dpr11 (defective proboscis extension response 11) | DRSC12563 | – | – | 6175 | 4.31e5 |
| CG11125 | DRSC06042 | – | – | 6818 | 2.65e5 |
| FRG1 (FSHD region gene 1) | DRSC10648 | – | – | 7338 | 4.31e5 |
| CG18095 | DRSC01948 | – | – | 7222 | 3.76e5 |
| CG3149 | DRSC17732 | – | – | 7350 | 3.65e5 |
| sbb (scribbler) | DRSC05723 | – | – | 7512 | 3.94e5 |
| sbb (scribbler) | DRSC07676 | – | – | 7854 | 3.75e5 |
| Cep290 (Centrosomal protein 290kDa) | DRSC08359 | – | – | 5108 | 3.49e5 |
| Uhg3 (U snoRNA host gene 3) | DRSC22963 | – | – | 4504 | 5.39e5 |
| Kebab (Kinetochore and EB1 associated basic protein) | DRSC00827 | – | – | 37634 | 1.41e6 |
| Vm34Ca (Vitelline membrane 34Ca) | DRSC03475 | – | – | 8267 | 4.74e5 |
| ric8a | DRSC18093 | – | – | 7419 | 5.96e5 |
| CG12093 | DRSC08252 | – | – | 10295 | 4.19e5 |
| CG13992 | DRSC02324 | – | – | 6186 | 3.15e5 |
| Polr1A (RNA polymerase I subunit A) | DRSC07535 | – | – | 8488 | 4.34e5 |
| Lmx1a (LIM homeobox transcription factor 1 alpha) | DRSC09726 | – | – | 6483 | 3.66e5 |
| Lmx1a (LIM homeobox transcription factor 1 alpha) | DRSC10275 | – | – | 4143 | 2.09e5 |
| CG3407 | DRSC00603 | – | – | 39918 | 3.51e5 |
| Rsph9 (Radial spoke head protein 9) | DRSC01594 | – | – | 5503 | 3.10e5 |
| Hmbs (Hydroxymethylbilane synthase) | DRSC08632 | – | – | 9144 | 3.70e5 |
| tty (tweety) | DRSC20588 | – | – | 7106 | 5.12e5 |
| Atg14 (Autophagy-related 14) | DRSC14421 | – | – | 7352 | 4.62e5 |
| CG8323 | DRSC07149 | – | – | 6198 | 4.37e5 |
| CG13728 | DRSC10056 | – | – | 8203 | 4.85e5 |
| Sox102F | DRSC17204 | – | – | 7156 | 3.07e5 |
| CG10405 | DRSC14238 | – | – | 7256 | 3.97e5 |
| MFS9 (Major Facilitator Superfamily Transporter 9) | DRSC15560 | – | – | 7373 | 2.68e5 |
| Sap-r (Saposin-related) | DRSC16849 | – | – | 4475 | 3.97e5 |
| Sap-r (Saposin-related) | DRSC21916 | – | – | 8819 | 4.72e5 |
| TwdlD (TweedleD) | DRSC14738 | – | – | 6036 | 2.88e5 |
| CG11836 | DRSC14396 | – | – | 9629 | 3.95e5 |
| CanB (Calcineurin B) | DRSC18449 | – | – | 5411 | 3.28e5 |
| mthl4 (methuselah-like 4) | DRSC06998 | – | – | 5816 | 3.34e5 |
| CG14417 | DRSC18638 | – | – | 7003 | 4.63e5 |
| dpr12 (defective proboscis extension response 12) | DRSC04814 | – | – | 5222 | 4.68e5 |
| dpr12 (defective proboscis extension response 12) | DRSC04863 | – | – | 6751 | 3.26e5 |
| dpr12 (defective proboscis extension response 12) | DRSC04892 | – | – | 8066 | 6.34e5 |

Just “stable assay firefly, run 1” (13 entries from above):
CG3587 [DRSC18541]	4.91e5
CG3587 [DRSC21966]	5.51e5
CG17224 [DRSC00489]	5.35e5
Cdk2 (Cyclin-dependent kinase 2) [DRSC16921]	3.72e5
Syn2 (Syntrophin-like 2) [DRSC06902]	2.61e5
TTLL5 (Tubulin tyrosine ligase-like 5) [DRSC14181]	3.91e5
CG1695 [DRSC20538]	3.49e5
CG15109 [DRSC06536]	3.10e5
l(3)neo43 (lethal (3) neo43) [DRSC14988]	3.46e5
CG13933 [DRSC08402]	2.87e5
Nhe3 (Na[+]/H[+] hydrogen exchanger 3) [DRSC03380]	3.80e5
CG14313 [DRSC14792]	3.95e5
CG13028 [DRSC09908]	3.16e5
